Library screen at single concentrations

From ChEMBL document CHEMBL3988442, “University of Dundee, Small-Polar-MMV Screening Library” (2021).

Results are given as percent effect.
The controls that fix the scale are not given in the record; negative values are as filed.
This is an unselected part of the compounds tested.

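Assay of Toxoplasma gondii numbers, read through their beta-galactosidase reporter with a colour substrate. Tested at 10 µM. Higher reads as fewer parasites (inferred from which compounds were picked for retests). Size under these conditions: about 67,000 compounds, about 260 of them at 50% or above in at least one test.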

{"smiles": "O=C(O)C(F)(F)F.O=S(=O)(NCC1COCc2c(-c3ccncc3)nnn2C1)C1CC1", "stereo": "centres unmarked", "Percent Effect": -7.118}
{"smiles": "COCc1c(Cl)cccc1NC(=O)CNC(=O)C(C)(C)C", "Percent Effect": -3.515}
{"smiles": "CC(C)C(CCO)NC(=O)Nc1cc(F)ccc1-n1cccn1", "stereo": "centres unmarked", "Percent Effect": -21.71}
{"smiles": "Cc1cc(NC(=O)N2CCN(C)CC2C)n(CCC#N)n1", "stereo": "centres unmarked", "Percent Effect": -5.563}
{"smiles": "N#Cc1ccc(NCCC(=O)N2CCCc3ccccc32)nc1", "Percent Effect": -1.705}
{"smiles": "CNC(=O)Cn1nc(C(C)C)c2cnn(C(C)(C)C)c2c1=O", "Percent Effect": -3.575}
{"smiles": "O=C(O)C(F)(F)F.O=C(O)C(F)(F)F.O=C(O)C(F)(F)F.[H][C@@]12CN(Cc3ccoc3)CCO[C@]1([H])CN(Cc1cccc(C)n1)C2", "Percent Effect": -1.315}
{"smiles": "CCNC(=O)N1CCCC(c2noc(CC)n2)C1", "stereo": "centres unmarked", "Percent Effect": -3.131}
{"smiles": "O=C(O)C(F)(F)F.O=C(O)C(F)(F)F.[H][C@]12CCN(C(=O)NCc3cccnc3)C[C@@]1([H])OCCN(CCOC)C2", "Percent Effect": 3.825}
{"smiles": "COc1cc2cc(C(=O)NCC(=O)O)n(C)c2c(OC)c1OC", "Percent Effect": 74.68}
{"smiles": "COCCN1CCC2(CC1)CC(c1cccnc1)C(=O)N2C", "stereo": "centres unmarked", "Percent Effect": 6.384}
{"smiles": "O=C(O)C(F)(F)F.O=C(O)C(F)(F)F.O=c1ccc2c(n1Cc1cccnc1)CCN(C1CCOC1)CC2", "stereo": "centres unmarked", "Percent Effect": -2.69}
{"smiles": "Cn1cc(CN2CCc3onc(C(=O)N4CCCC4)c3C2)cn1.O=C(O)C(F)(F)F", "Percent Effect": -5.842}
{"smiles": "CC(C)(C)OC(=O)Cn1cccc(S(=O)(=O)N2CCCC2)c1=O", "Percent Effect": -19.41}
{"smiles": "O=C1CCC2(CCCN(C(=O)c3ccco3)CC2)N1", "stereo": "centres unmarked", "Percent Effect": -6.989}
{"smiles": "[H][C@]12CCN(C(=O)C(C)C)CC[C@@]1([H])S(=O)(=O)N(Cc1ccncc1)C2", "Percent Effect": 27.02}
{"smiles": "Cc1nn(-c2ccccc2)c(C)c1CN1CCNCC1", "Percent Effect": -4.646}
{"smiles": "CCC[C@@H]1CN(Cc2ccc(C(F)(F)F)nc2)C[C@H]1NS(C)(=O)=O", "Percent Effect": 3.061}
{"smiles": "COCCS(=O)(=O)NC(C)c1ccccc1Cl", "stereo": "centres unmarked", "Percent Effect": 2.89}
{"smiles": "Cc1ccc(NC(=O)C2CCc3ccccc3N2)cc1", "stereo": "centres unmarked", "Percent Effect": 26.02}
{"smiles": "COCCNC(=O)NC1(c2ccccc2F)CC1", "Percent Effect": 11.33}
{"smiles": "CC(CNC(=O)c1nc(N2CCOCC2)ncc1Cl)c1ccccc1", "stereo": "centres unmarked", "Percent Effect": -7.877}
{"smiles": "CN(CC(=O)Nc1ccc(Br)cn1)C(=O)Cc1ccc(O)cc1", "Percent Effect": 9.174}
{"smiles": "COCCNC(=O)c1nn(-c2cccc(C(C)C)c2)cc1O", "Percent Effect": 0.3706}
{"smiles": "CC(C)OC(=O)N1CCC(Cc2cccc(C(N)=O)c2)C1", "stereo": "centres unmarked", "Percent Effect": 9.57}
{"smiles": "CNc1cc2c(nn1)CCN(C(=O)c1ccc(-n3nccc3C)cc1)C2", "Percent Effect": 5.139}
{"smiles": "[H][C@@]12CCC(=O)N(CCc3ccc(C)o3)[C@]1([H])CCN(Cc1cnn(C)c1)C2", "Percent Effect": 10.33}
{"smiles": "CC(c1ccccc1)N1Cc2nc(N(C)C)ncc2C1=O", "stereo": "centres unmarked", "Percent Effect": 9.102}
{"smiles": "Cc1ncc(CNC(=O)Nc2cc(C(F)(F)F)c[nH]c2=O)s1", "Percent Effect": -2.501}
{"smiles": "O=C(CCc1ccccc1F)N1CCCC(OCc2cccnc2)C1", "stereo": "centres unmarked", "Percent Effect": 3.615}
{"smiles": "CCN(CC)C1(Cc2cc(COC)on2)COC1", "Percent Effect": 0.2231}
{"smiles": "CCOCCc1nc(Cc2ccccc2)n[nH]1", "Percent Effect": -4.492}
{"smiles": "Cc1nsc(N2CCN(CC(=O)N(C3CC3)C(C)C3CC3)CC2)n1", "stereo": "centres unmarked", "Percent Effect": -9.193}
{"smiles": "CCOCCc1nc(-c2cnn3c(C)cc(C)nc23)no1", "Percent Effect": 6.073}
{"smiles": "O=C(O)C(F)(F)F.[H][C@]12CCC[C@@H](CNc3ncccn3)[C@@]1([H])CN(Cc1csnn1)C2", "Percent Effect": 4.657}
{"smiles": "Cl.Nc1cccnc1N1CCCCCC1", "Percent Effect": 17.04}
{"smiles": "CC1CCN(C(=O)CSc2nc3c(cnn3CCO)c(=O)[nH]2)CC1", "Percent Effect": -0.5323}
{"smiles": "CN(c1ccc(C(=O)NCCCN2CCOCC2)c(Cl)c1)S(C)(=O)=O", "Percent Effect": 14.25}
{"smiles": "CCn1cc(NC(=O)NCC(c2ccsc2)N(C)C)cn1", "stereo": "centres unmarked", "Percent Effect": -3.214}
{"smiles": "O=C(OCc1ccccc1)C1CCCN1Cc1nc(C2CC2)no1", "stereo": "centres unmarked", "Percent Effect": 3.612}
{"smiles": "CC1=C(CCN2CCCC(O)C2)C(C)(C)CCC1", "stereo": "centres unmarked", "Percent Effect": -5.627}
{"smiles": "c1cc(CN2CCSC3(CCCCC3)C2)no1", "Percent Effect": 18.34}
{"smiles": "CN(C)Cc1ccc(C2CCCCN2C(=O)c2cc(=O)[nH]c(=O)[nH]2)cc1", "stereo": "centres unmarked", "Percent Effect": -2.324}
{"smiles": "COc1ccc(OC)c(-n2c(COC(C)C)n[nH]c2=O)c1", "Percent Effect": -0.8751}
{"smiles": "Fc1cccc(-c2nc(CN3CCn4c(nnc4C4CC4)C3)co2)c1", "Percent Effect": 9.454}
{"smiles": "COc1ccc2cc(C(=O)NCCc3nc(C)no3)[nH]c2c1", "Percent Effect": -1.008}
{"smiles": "Cc1ncc(CNc2ccc(C(=O)NCc3ccco3)cc2C)s1", "Percent Effect": 5.133}
{"smiles": "CC(NCc1ccc(OCC(N)=O)cc1)c1ccc(Cl)c(Cl)c1.Cl", "stereo": "centres unmarked", "Percent Effect": -23.76}
{"smiles": "O=C(O)C(F)(F)F.O=C(O)C(F)(F)F.[H][C@@]12CCN(C(=O)Cc3ccsc3)[C@@]1([H])CC(=O)N2Cc1cccnc1", "Percent Effect": -18.01}
{"smiles": "Cc1nc(Cn2cncc(Br)c2=O)no1", "Percent Effect": 5.501}